Among the data in publication PMC7862700 are binding signal values, retold here.

The list shows a part of the results, in another mix than the full data. At the low end of the ranking the order means little.

This assay concerns the target T1, GABPA (UniProt Q06546).
T1 sequence: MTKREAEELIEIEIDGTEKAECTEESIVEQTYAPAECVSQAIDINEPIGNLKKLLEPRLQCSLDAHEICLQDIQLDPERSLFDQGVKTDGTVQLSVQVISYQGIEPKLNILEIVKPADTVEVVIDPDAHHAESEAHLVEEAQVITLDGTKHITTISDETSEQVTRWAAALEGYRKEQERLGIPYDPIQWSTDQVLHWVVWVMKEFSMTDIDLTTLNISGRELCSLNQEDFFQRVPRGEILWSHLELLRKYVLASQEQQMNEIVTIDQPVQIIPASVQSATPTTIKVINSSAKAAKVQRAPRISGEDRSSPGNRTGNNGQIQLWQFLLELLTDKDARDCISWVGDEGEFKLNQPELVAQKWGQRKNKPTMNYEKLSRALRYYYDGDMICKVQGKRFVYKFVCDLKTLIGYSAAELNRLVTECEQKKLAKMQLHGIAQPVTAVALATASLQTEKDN
Nature of the assay: DAPPL (digital affinity profiling via proximity ligation, sequencing). The conditions noted are these: 10 mM Tris-HCl pH 7.5, 50 mM NaCl, 1 mM DTT, 4% glycerol, room temperature, 30 min; GST-TFs on glutathione beads, 16-mer random dsDNA library, 0.1% …; high values mean tight binding; double strand, one strand shown; scale: fold enrichment (6-mer frequency, TF over GST control).
As for GACAGC, the binding signal amounted to 0.813.
As for GAGGGA, the figure is 0.465.
As to GGGTGT, the binding signal was found to be 0.663.
To CGGCAG belongs 0.811; to GAGGAG, 0.231.
To AGGACG belongs 0.506; to AGTAGA, 0.801.
To GAGTTG belongs 0.495; to AGATAC, 0.903.
TGGGTC: the binding signal came to 0.651.
Regarding AGACGA, the binding signal stood at 0.706.
For CGGACA, the binding signal worked out at 0.766.
As for CCGTAG, the figure is 0.875; as for GGAGCC, 0.318; as for TGAGTT, 0.417.
As for GTTGGA, the figure is 0.472; as for GGGGCA, 0.69; as for GAGCAT, 0.754.
For the sequence GAGGAC, the binding signal was 0.665.
In turn, GGCCAG returned a binding signal of 0.491.
To CGTGTC belongs 0.705.
In turn, AGTTCA yielded a binding signal of 0.935.
TCAGTG: the binding signal came out at 0.773.
GTACCG registered a binding signal of 0.73.
Consider GAGCAA, for which the binding signal was found to be 0.748.
ACGAGG yielded a binding signal of 0.766.
With AGCGTA, the binding signal worked out at 0.913.
The sequence AGGAGT had a binding signal of 0.367.
To TTGGAG belongs 0.487; to GAACGG, 0.627.
As for AAGTGA, the figure is 0.666; as for GGTGTG, 0.712; as for GTGCCA, 0.785.
As for CGTCGT, the figure is 0.786; as for GGCGAG, 0.498; as for GTTAGT, 0.817.
CGAGCC displayed a binding signal of 0.834.
To AAGAGG belongs 0.856; to ACTGTG, 0.493.
